# According to ChEMBL document CHEMBL4513152, “CO-ADD screening of Yantai University (China) compounds”:
# This is one part of the list. Potency and affinity values are given separately.
# Test system: Acinetobacter baumannii
# Conditions: Concentration 32 ug.mL-1; ASSAY_TEST Inhibition of Bacterial Growth; detection method Absorption (OD600); MEDIA CAMHB; plate type 384well; NBS; CORNING #3640; time 18 hr
row,Compound,Inhibition
1,CC(=O)O[C@H]1C[C@@]2(C)C(C[C@@H](O)C3[C@@]4(C)CC[C@@H](OC(=O)c5ccccc5C(=O)OCCc5ccc(OCCO[N+](=O)[O-])cc5)[C@@H](C)C4CC[C@@]32C)/C1=C(\CCC=C(C)C)C(=O)OCc1ccccc1 (some centres undefined),-2.64%
2,CC(=O)O[C@H]1C[C@@]2(C)C(C[C@@H](O)C3[C@@]4(C)CC[C@@H](OC(=O)CO[N+](=O)[O-])[C@@H](C)C4CC[C@@]32C)/C1=C(\CCC=C(C)C)C(=O)OCc1ccccc1 (some centres undefined),-3.15%
3,CC(=O)O[C@H]1C[C@@]2(C)C(C[C@@H](O)C3[C@@]4(C)CC[C@@H](OC(=O)C(N)CC(C)C)[C@@H](C)C4CC[C@@]32C)/C1=C(\CCC=C(C)C)C(=O)OCc1ccccc1 (some centres undefined),-4.21%
4,CC(=O)O[C@H]1C[C@@]2(C)C(C[C@@H](O)C3[C@@]4(C)CC[C@@H](OC(=O)CCC(=O)OCCc5ccc(OCCO[N+](=O)[O-])cc5)[C@@H](C)C4CC[C@@]32C)/C1=C(\CCC=C(C)C)C(=O)OCc1ccccc1 (some centres undefined),-5.76%
5,CC(=O)O[C@H]1C[C@@]2(C)C(C[C@@H](O)C3[C@@]4(C)CC[C@@H](O)[C@@H](C)C4CC[C@@]32C)/C1=C(\CCC=C(C)C)C(=O)Oc1ccc(CCO[N+](=O)[O-])cc1 (some centres undefined),-8.95%
6,CC(=O)O[C@H]1C[C@@]2(C)C(C[C@@H](O)C3[C@@]4(C)CC[C@@H](OC(=O)c5ccccc5C(=O)Nc5cccc(N)c5)[C@@H](C)C4CC[C@@]32C)/C1=C(\CCC=C(C)C)C(=O)OCc1ccccc1 (some centres undefined),-7.67%
7,CC(=O)O[C@H]1C[C@@]2(C)C(C[C@@H](O)C3[C@@]4(C)CC[C@@H](OC(=O)CCCCO[N+](=O)[O-])[C@@H](C)C4CC[C@@]32C)/C1=C(\CCC=C(C)C)C(=O)OCc1ccccc1 (some centres undefined),-9.75%
8,CC(=O)O[C@H]1C[C@@]2(C)C(C[C@@H](O)C3[C@@]4(C)CC[C@@H](OC(=O)C(C)N)[C@@H](C)C4CC[C@@]32C)/C1=C(\CCC=C(C)C)C(=O)OCc1ccccc1 (some centres undefined),-17.87%
9,CC(=O)O[C@H]1C[C@@]2(C)C(C[C@@H](O)C3[C@@]4(C)CC[C@@H](OC(=O)C(N)C(C)C)[C@@H](C)C4CC[C@@]32C)/C1=C(\CCC=C(C)C)C(=O)OCc1ccccc1 (some centres undefined),-13.72%
10,CC(=O)O[C@H]1C[C@@]2(C)C(CC(=O)C3[C@@]4(C)CCC(=O)[C@@H](C)C4CC[C@@]32C)/C1=C(\CCC=C(C)C)C(=O)OCc1ccccc1 (some centres undefined),-9.49%
11,CC(=O)O[C@H]1C[C@@]2(C)C(C[C@@H](O)C3[C@@]4(C)CC[C@@H](O)[C@@H](C)C4CC[C@@]32C)/C1=C(\CCC=C(C)C)C(=O)OCc1ccccc1 (some centres undefined),-14.6%
12,CC(=O)O[C@H]1C[C@@]2(C)C(CC(=O)C3[C@@]4(C)CC[C@@H](OC(=O)CCCCCO[N+](=O)[O-])[C@@H](C)C4CC[C@@]32C)/C1=C(\CCC=C(C)C)C(=O)OCc1ccccc1 (some centres undefined),-6.19%
13,CC(=O)O[C@H]1C[C@@]2(C)C(C[C@@H](O)C3[C@@]4(C)CC[C@@H](OC(=O)CCC(=O)O)[C@@H](C)C4CC[C@@]32C)/C1=C(\CCC=C(C)C)C(=O)OCc1ccccc1 (some centres undefined),0.71%
14,CC(=O)O[C@H]1C[C@@]2(C)C(C[C@@H](O)C3[C@@]4(C)CC[C@@H](OC(=O)c5ccccc5C(=O)Oc5ccc(CCO[N+](=O)[O-])cc5)[C@@H](C)C4CC[C@@]32C)/C1=C(\CCC=C(C)C)C(=O)OCc1ccccc1 (some centres undefined),-8.2%
15,CC(=O)O[C@H]1C[C@@]2(C)C(C[C@@H](O)C3[C@@]4(C)CC[C@@H](OC(=O)c5ccccc5C(=O)Nc5ccc(N)cc5)[C@@H](C)C4CC[C@@]32C)/C1=C(\CCC=C(C)C)C(=O)OCc1ccccc1 (some centres undefined),-9.86%
16,CC(=O)O[C@H]1C[C@@]2(C)C(CC(=O)C3[C@@]4(C)CC[C@@H](OC(=O)CCCCO[N+](=O)[O-])[C@@H](C)C4CC[C@@]32C)/C1=C(\CCC=C(C)C)C(=O)OCc1ccccc1 (some centres undefined),-4.85%
17,CC(=O)O[C@H]1C[C@@]2(C)C(C[C@@H](O)C3[C@@]4(C)CC[C@@H](O)[C@@H](C)C4CC[C@@]32C)/C1=C(\CCC=C(C)C)C(=O)On1nnc2ccccc21 (some centres undefined),-4.42%
18,CC(=O)O[C@H]1C[C@@]2(C)C(C[C@@H](O)C3[C@@]4(C)CC[C@@H](OC(=O)CCCCCO[N+](=O)[O-])[C@@H](C)C4CC[C@@]32C)/C1=C(\CCC=C(C)C)C(=O)OCc1ccccc1 (some centres undefined),-6.35%
19,CC(=O)O[C@H]1C[C@@]2(C)C(C[C@@H](O)C3[C@@]4(C)CC[C@@H](OC(=O)CCC(=O)Oc5ccc(CCO[N+](=O)[O-])cc5)[C@@H](C)C4CC[C@@]32C)/C1=C(\CCC=C(C)C)C(=O)OCc1ccccc1 (some centres undefined),-2.18%

# Arranged by molecular weight (largest number first): 6 of the compounds above
row,Compound,Inhibition
1,CC(=O)O[C@H]1C[C@@]2(C)C(C[C@@H](O)C3[C@@]4(C)CC[C@@H](OC(=O)c5ccccc5C(=O)OCCc5ccc(OCCO[N+](=O)[O-])cc5)[C@@H](C)C4CC[C@@]32C)/C1=C(\CCC=C(C)C)C(=O)OCc1ccccc1 (some centres undefined),-2.64%
14,CC(=O)O[C@H]1C[C@@]2(C)C(C[C@@H](O)C3[C@@]4(C)CC[C@@H](OC(=O)c5ccccc5C(=O)Oc5ccc(CCO[N+](=O)[O-])cc5)[C@@H](C)C4CC[C@@]32C)/C1=C(\CCC=C(C)C)C(=O)OCc1ccccc1 (some centres undefined),-8.2%
18,CC(=O)O[C@H]1C[C@@]2(C)C(C[C@@H](O)C3[C@@]4(C)CC[C@@H](OC(=O)CCCCCO[N+](=O)[O-])[C@@H](C)C4CC[C@@]32C)/C1=C(\CCC=C(C)C)C(=O)OCc1ccccc1 (some centres undefined),-6.35%
12,CC(=O)O[C@H]1C[C@@]2(C)C(CC(=O)C3[C@@]4(C)CC[C@@H](OC(=O)CCCCCO[N+](=O)[O-])[C@@H](C)C4CC[C@@]32C)/C1=C(\CCC=C(C)C)C(=O)OCc1ccccc1 (some centres undefined),-6.19%
13,CC(=O)O[C@H]1C[C@@]2(C)C(C[C@@H](O)C3[C@@]4(C)CC[C@@H](OC(=O)CCC(=O)O)[C@@H](C)C4CC[C@@]32C)/C1=C(\CCC=C(C)C)C(=O)OCc1ccccc1 (some centres undefined),0.71%
11,CC(=O)O[C@H]1C[C@@]2(C)C(C[C@@H](O)C3[C@@]4(C)CC[C@@H](O)[C@@H](C)C4CC[C@@]32C)/C1=C(\CCC=C(C)C)C(=O)OCc1ccccc1 (some centres undefined),-14.6%
